Measurements as given in article PMC7862700.
The list shows a part of the results, in another mix than the full data. At the low end of the ranking the order means little.

Amino acid sequences for entries named in this document (tags omitted). A change or cut given only in a name is not applied to a line headed by its entry.
UniProt Q9Y603: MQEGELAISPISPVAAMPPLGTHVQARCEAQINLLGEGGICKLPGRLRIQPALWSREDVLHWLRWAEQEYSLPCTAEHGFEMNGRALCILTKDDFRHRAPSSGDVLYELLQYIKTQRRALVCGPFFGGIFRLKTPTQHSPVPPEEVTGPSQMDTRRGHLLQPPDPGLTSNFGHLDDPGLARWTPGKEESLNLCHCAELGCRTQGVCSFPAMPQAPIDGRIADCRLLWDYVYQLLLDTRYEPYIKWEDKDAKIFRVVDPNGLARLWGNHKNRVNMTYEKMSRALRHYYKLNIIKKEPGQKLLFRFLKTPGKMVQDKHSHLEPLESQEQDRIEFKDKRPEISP

Columns and labels:
ELF3 = biological target: T1, ELF3 (UniProt P78545); test: DAPPL (digital affinity profiling via proximity ligation, sequencing); details: 10 mM Tris-HCl pH 7.5, 50 mM NaCl, 1 mM DTT, 4% glycerol, room temperature, 30 min; GST-TFs on glutathione beads, 16-mer random dsDNA library, 0.1% …; high values mean tight binding; double strand, one strand shown; scale: fold enrichment (6-mer frequency, TF over GST control)
T1 sequence: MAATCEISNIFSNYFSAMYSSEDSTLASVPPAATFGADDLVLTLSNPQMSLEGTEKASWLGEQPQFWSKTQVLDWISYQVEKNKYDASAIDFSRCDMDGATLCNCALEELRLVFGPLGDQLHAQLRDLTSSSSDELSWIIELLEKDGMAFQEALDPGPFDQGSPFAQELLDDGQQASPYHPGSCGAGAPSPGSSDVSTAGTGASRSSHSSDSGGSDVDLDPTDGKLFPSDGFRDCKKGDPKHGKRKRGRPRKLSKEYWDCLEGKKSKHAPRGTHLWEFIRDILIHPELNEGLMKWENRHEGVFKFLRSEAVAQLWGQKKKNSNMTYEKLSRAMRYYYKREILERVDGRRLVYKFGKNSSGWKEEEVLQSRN

ETV7 = ETV7 (UniProt Q9Y603); test: as above; details: 10 mM Tris-HCl pH 7.5, 50 mM NaCl, 1 mM DTT, 4% glycerol, room temperature, 30 min; GST-TFs on glutathione beads, 16-mer random dsDNA library, 0.1% …; high values mean tight binding; double strand, one strand shown; scale: fold enrichment (6-mer frequency, TF over GST control)

Row | Sequence | binding signal (ELF3) | binding signal (ETV7)
1 | CGTACG | 1.01 | 
2 | TTTGTT | 1.35 | 
3 | ACCTAT | 1.24 | 
4 | AATAAA | 1.31 | 
5 | CACCCT | 1.08 | 
6 | ATACTC | 1.23 | 
7 | AGTGTA | 0.96 | 
8 | AAATGC | 1.35 | 
9 | TGATCG | 0.944 | 
10 | TCTTCC | 2.33 | 
11 | ATTGTC | 0.879 | 
12 | TTGTTT | 1.61 | 
13 | CTATGC | 1.2 | 
14 | TATTTT | 1.36 | 
15 | CTCACC | 1.33 | 1.06
16 | TGCCGA | 1.16 | 1.15
17 | AGCGTC | 0.932 | 1.06
18 | CGAACT | 1.02 | 1.15
19 | ACTGCC | 1.24 | 1.34
20 | CCACAC | 0.999 | 0.934
21 | TCTTTT | 1.41 | 1.56
22 | CAATGT | 0.909 | 1.09
23 | ACCGTT | 0.911 | 1.08
24 | AGTATA | 0.981 | 0.993
25 | GCGCCC | 0.971 | 0.991
26 | TCACTG | 1.48 | 1.3
27 | GTTACC | 1.06 | 1.02
28 | GTATCT | 1.26 | 1.14

From entry 9 up to 10, as listed above:
Row | Sequence | binding signal (ELF3) | binding signal (ETV7)
9 | TGATCG | 0.944 | 
10 | TCTTCC | 2.33 | 

(cont.)

Row | Sequence | binding signal (ELF3) | binding signal (ETV7)
29 | AAACCG | 1.07 | 1.04
30 | CCATGG | 0.999 | 0.99
31 | TTTCGC | 0.978 | 1.16
32 | TGGATA | 1.16 | 0.99
33 | CAGCCC | 1.35 | 0.952
34 | GTGCCT | 0.697 | 0.897
35 | AGCAAA | 1.21 | 0.982
36 | CACTCC | 1.23 | 1.24
37 | CCGTTT | 1.44 | 1.49
38 | ATGCCG | 0.953 | 0.973
39 | TCACGG | 0.981 | 1.04
40 | GGTACA | 0.986 | 1.11
41 | CACACG | 1.07 | 0.987
42 | CGGCAA | 0.923 | 0.915
43 | TCCCAT | 1.44 | 1.28
44 | ACCTCC | 1.14 | 1.4
45 | GGTTAC | 1.07 | 0.95
46 | GAATGG | 0.949 | 0.94
47 | TAATCG | 1.07 | 0.903
48 | GCGCCG | 0.972 | 0.887
49 | CCGGCG | 0.924 | 0.9
50 | AGTATT | 1.17 | 1.3
51 | TAGTGC | 1.03 | 0.993
52 | CTAGGC | 0.954 | 1.2
53 | GGTTAT | 0.989 | 1.12
54 | TATAAT | 1.27 | 1.17
55 | TCCACT | 1.25 | 1.4
